According to patent publication US12564191B2, “Pesticidal compounds” (priority 2020, dated 2026):
Some results were stated once for a whole list of compounds, not compound by compound.

What was measured:
Type in all cases: in vivo
[1] = tested on: Yellow fever mosquito (Aedes aegypti); conditions: 2500 ppm; freshly hatched larvae in tap water; assessed after 2 days
Method: B.6. Yellow Fever Mosquito (Aedes aegypti)
For evaluating control of yellow fever mosquito (Aedes aegypti) the test unit consisted of 96-well-microtiter plates containing 200 μl of tap water per well and 5-15 freshly hatched A. aegypti larvae. The active compounds were formulated using a solution containing 75% (v/v) water and 25% (v/v) DMSO. Different concentrations of formulated compounds or mixtures were sprayed onto the insect diet at 2.5 μl, using a custom built micro atomizer, at two replications.
After application, microtiter plates were incubated at 28+1° C., 80+5% RH for 2 days. Larval mortality was then visually assessed.

[2] = tested on: Tobacco budworm (Heliothis virescens); assay: Tobacco budworm (Heliothis virescens) microtiter diet test, egg and larval mortality; conditions: 2500 ppm; sprayed onto insect diet; assessed after 5 days
Method: B.5. Tobacco Budworm (Heliothis virescens)
For evaluating control of tobacco budworm (Heliothis virescens) the test unit consisted of 96-well-microtiter plates containing an insect diet and 15-25 H. virescens eggs.
The compounds were formulated using a solution containing 75% v/v water and 25% v/v DMSO. Different concentrations of formulated compounds were sprayed onto the insect diet at 10 μl, using a custom built micro atomizer, at two replications.
After application, microtiter plates were incubated at about 28±1° C. and about 80±5% relative humidity for 5 days. Egg and larval mortality was then visually assessed.

[3] = tested on: Diamond back moth (Plutella xylostella); assay: Diamond back moth (Plutella xylostella) cabbage leaf dip test; conditions: 500 ppm, 3rd instar larvae, 72 hours after treatment
Method: B.2. Diamond Back Moth (Plutella xylostella)
The active compound is dissolved at the desired concentration in a mixture of 1:1 (vol:vol) distilled water:acetone. Surfactant (Alkamuls® EL 620) is added at a rate of 0.1% (vol/vol). The test solution is prepared at the day of use.
Leaves of cabbage were dipped in test solution and air-dried. Treated leaves were placed in petri dish enlined with moist filter paper and inoculated with ten 3rd instar larvae. Mortality was recorded 72 hours after treatment. Feeding damages were also recorded using a scale of 0-100%.

[4] = tested on: Orchid thrips (Dichromothrips corbetti); assay: Orchid thrips (Dichromothrips corbetti) floral-immersion test; conditions: 500 ppm, adult thrips, 72 hours after treatment
Method: B.7. Orchid Thrips (Dichromothrips corbetti)
Dichromothrips corbetti adults used for bioassay were obtained from a colony maintained continuously under laboratory conditions. For testing purposes, the test compound is diluted in a 1:1 mixture of acetone:water (vol:vol), plus Kinetic® HV at a rate of 0.01% v/v.
Thrips potency of each compound was evaluated by using a floral-immersion technique. All petals of individual, intact orchid flowers were dipped into treatment solution and allowed to dry in Petri dishes. Treated petals were placed into individual re-sealable plastic along with about 20 adult thrips. All test arenas were held under continuous light and a temperature of about 28° C. for duration of the assay. After 3 days, the numbers of live thrips were counted on each petal. The percent mortality was recorded 72 hours after treatment.

[5] = tested on: Southern Armyworm (Spodoptera eridania), 2nd Instar Larvae; assay: Southern armyworm 2nd instar larvae on sprayed lima bean plants; conditions: 500 ppm, 4 days after treatment
Method: B.4. Southern Armyworm (Spodoptera eridania), 2nd Instar Larvae
The active compounds were formulated in cyclohexanone as a 10,000 ppm solution supplied in tubes. The tubes were inserted into an automated electrostatic sprayer equipped with an atomizing nozzle and they served as stock solutions for which lower dilutions were made in 50% acetone:50% water (v/v). A nonionic surfactant (Kinetic®) was included in the solution at a volume of 0.01% (v/v).
Lima bean plants (variety Sieva) were grown 2 plants to a pot and selected for treatment at the 1st true leaf stage. Test solutions were sprayed onto the foliage by an automated electrostatic plant sprayer equipped with an atomizing spray nozzle. The plants were dried in the sprayer fume hood and then removed from the sprayer. Each pot was placed into perforated plastic bags with a zip closure. About 10 to 11 armyworm larvae were placed into the bag and the bags zipped closed. Test plants were maintained in a growth room at about 25° C. and about 20-40% relative humidity for 4 days, avoiding direct exposure to fluorescent light (24 hour photoperiod) to prevent trapping of heat inside the bags. Mortality and reduced feeding were assessed 4 days after treatment, compared to untreated control plants.

[6] = tested on: Western flower thrips (Frankliniella occidentalis); assay: Western flower thrips (Frankliniella occidentalis) cotton leaf disc test; conditions: 300 ppm; treated cotton leaf discs; 2 DAT
Method: B.9. Western Flower Thrips (Frankliniella occidentalis)
The active compounds were formulated by a Tecan liquid handler in 100% cyclohexanone as a 10,000 ppm solution supplied in tubes. The 10,000 ppm solution was serially diluted in 100% cyclohexanone to make interim solutions. These served as stock solutions for which final dilutions were made by the Tecan in 50% acetone:50% water (v/v) into 10 or 20 ml glass vials. A nonionic surfactant (Kinetic®) was included in the solution at a volume of 0.01% (v/v). The vials were then inserted into an automated electrostatic sprayer equipped with an atomizing nozzle for application to plants/insects.
Small (˜2″ in height) cotton plants are sprayed with test compounds at concentrations ranging from 300 to 0.01 ppm in acetone/water through the automated VPS. After drying, cotton leaves are removed and circular leaf discs (˜1 cm diameter) are punched from the treated surface and transferred to clean 20 mL scintillation vials. Ten Western flower thrips (FRANOC) are aspirated into each scintillation vial. The vials with the leaf discs and thrips are kept in an upright incubator at 25° C. and 50% relative humidity with a 14:10 light:dark photoperiod. Each treatment is replicated twice.
Thrips mortality is assessed at 2 DAT (days after treatment), counting all thrips both dead and alive. [The average absolute mortality is calculated for each treatment.]

[7] = tested on: Boll weevil (Anthonomus grandis); assay: Boll weevil (Anthonomus grandis) microtiter diet test, egg and larval mortality; conditions: 2500 ppm; sprayed onto insect diet; assessed after 5 days

Cc1ccc(C(C)C)c(NC(=S)NN=Cc2ccc(-c3cc(NC(=O)c4ccc(C(F)(F)F)cc4)cnn3)cc2)c1 [Example C-7]
over 75%: larval mortality in comparison with untreated controls [1] | egg and larval mortality in comparison with untreated controls [2] | mortality in comparison with untreated controls [3] | mortality in comparison with untreated controls [4] | mortality in comparison with untreated controls [5]

CC(C)c1ccccc1N1C(=O)CSC1=NN=Cc1ccc(-c2cc(NC(=O)c3ccc(C(F)(F)F)cc3)cnn2)cc1 [Example C-9]
over 75%: larval mortality in comparison with untreated controls [1] | egg and larval mortality in comparison with untreated controls [2] | mortality in comparison with untreated controls [3] | mortality in comparison with untreated controls [4] | mortality in comparison with untreated controls [5]

Cc1ccc(C(C)C)c(N2C(=O)CSC2=NN=Cc2ccc(-c3cc(NC(=O)c4ccc(C(F)(F)F)cc4)cnn3)cc2)c1 [Example C-10]
over 75%: larval mortality in comparison with untreated controls [1] | egg and larval mortality in comparison with untreated controls [2] | mortality in comparison with untreated controls [3] | mortality in comparison with untreated controls [4] | mortality in comparison with untreated controls [5]

CC(C)c1ccccc1N1C(=O)CSC1=NN=Cc1ccc(-c2cc(NC(=O)c3ccc(OC(F)(F)F)cc3)ncn2)cc1 [Example C-15]
over 75%: mortality in comparison with untreated controls [6] | egg and larval mortality in comparison with untreated controls [2] | mortality in comparison with untreated controls [3] | mortality in comparison with untreated controls [4] | mortality in comparison with untreated controls [5]

CC(C)c1ccccc1N1C(=O)CSC1=NN=Cc1ccc(-c2cc(NC(=O)c3ccc(C(F)(F)F)cc3)ncn2)cc1 [Example C-18]
over 75%: mortality in comparison with untreated controls [6] | larval mortality in comparison with untreated controls [1] | egg and larval mortality in comparison with untreated controls [2] | mortality in comparison with untreated controls [3] | mortality in comparison with untreated controls [4] | mortality in comparison with untreated controls [5]

CC(C)c1ccccc1NC(=S)NN=Cc1ccc(-c2cc(OCc3ccc(OC(F)(F)F)cc3)ncn2)cc1 [Example C-22]
over 75%: egg and larval mortality in comparison with untreated controls [2] | mortality in comparison with untreated controls [3] | mortality in comparison with untreated controls [4] | mortality in comparison with untreated controls [5]

CC(C)c1ccccc1N=C1SCC(=O)N1N=Cc1ccc(-c2cc(OCc3ccc(OC(F)(F)F)cc3)ncn2)cc1 [Example C-23]
over 75%: larval mortality in comparison with untreated controls [1] | egg and larval mortality in comparison with untreated controls [2] | mortality in comparison with untreated controls [3] | mortality in comparison with untreated controls [4] | mortality in comparison with untreated controls [5]

CC(C)c1ccccc1N1C(=O)CSC1=NN=Cc1ccc(-c2cc(OCc3ccc(OC(F)(F)F)cc3)ncn2)cc1 [Example C-24]
over 75%: mortality in comparison with untreated controls [6] | larval mortality in comparison with untreated controls [1] | egg and larval mortality in comparison with untreated controls [7] | egg and larval mortality in comparison with untreated controls [2] | mortality in comparison with untreated controls [4] | mortality in comparison with untreated controls [5]

CC(C)c1ccccc1NC(=S)NN=Cc1ccc(-c2cc(C(=N)Nc3ccc(OC(F)(F)F)cc3)ncn2)cc1 [Example C-25]
over 75%: larval mortality in comparison with untreated controls [1] | egg and larval mortality in comparison with untreated controls [7] | egg and larval mortality in comparison with untreated controls [2] | mortality in comparison with untreated controls [4] | mortality in comparison with untreated controls [5]

CC(C)c1ccccc1NC(=O)NN=Cc1ccc(-c2cc(C(=N)Nc3ccc(OC(F)(F)F)cc3)ncn2)cc1 [Example C-26]
over 75%: larval mortality in comparison with untreated controls [1] | egg and larval mortality in comparison with untreated controls [7] | egg and larval mortality in comparison with untreated controls [2] | mortality in comparison with untreated controls [3] | mortality in comparison with untreated controls [5]

CC(C)c1ccccc1NC(=S)NN=Cc1ccc(-c2cc(NC(=O)c3ccc(OC(F)(F)F)cc3)ncn2)cc1 [Example C-27]
over 75%: mortality in comparison with untreated controls [6] | larval mortality in comparison with untreated controls [1] | egg and larval mortality in comparison with untreated controls [7] | egg and larval mortality in comparison with untreated controls [2] | mortality in comparison with untreated controls [3] | mortality in comparison with untreated controls [4] | mortality in comparison with untreated controls [5]

CC(C)c1ccccc1N1C(=O)CSC1=NN=Cc1ccc(-c2cc(C(=N)Nc3ccc(OC(F)(F)F)cc3)ncn2)cc1 [Example C-28]
over 75%: mortality in comparison with untreated controls [6] | larval mortality in comparison with untreated controls [1] | egg and larval mortality in comparison with untreated controls [7] | egg and larval mortality in comparison with untreated controls [2] | mortality in comparison with untreated controls [3] | mortality in comparison with untreated controls [4] | mortality in comparison with untreated controls [5]

CC(C)c1ccccc1NC(=O)NN=Cc1ccc(-c2cc(NC(=O)c3ccc(OC(F)(F)F)cc3)ncn2)cc1 [Example C-29]
over 75%: larval mortality in comparison with untreated controls [1] | egg and larval mortality in comparison with untreated controls [7] | egg and larval mortality in comparison with untreated controls [2] | mortality in comparison with untreated controls [3]

CC(C)c1ccccc1N=C1SCC(=O)N1N=Cc1ccc(-c2cc(C(=N)Nc3ccc(OC(F)(F)F)cc3)ncn2)cc1 [Example C-30]
over 75%: mortality in comparison with untreated controls [6] | larval mortality in comparison with untreated controls [1] | egg and larval mortality in comparison with untreated controls [7] | egg and larval mortality in comparison with untreated controls [2] | mortality in comparison with untreated controls [3] | mortality in comparison with untreated controls [4] | mortality in comparison with untreated controls [5]

Cc1ccc(C(C)C)c(N=C2SCC(=O)N2N=Cc2ccc(-c3cc(NC(=O)c4ccc(OC(F)(F)F)cc4)ncn3)cc2)c1 [Example C-31]
over 75%: larval mortality in comparison with untreated controls [1] | egg and larval mortality in comparison with untreated controls [7] | egg and larval mortality in comparison with untreated controls [2] | mortality in comparison with untreated controls [3] | mortality in comparison with untreated controls [4]
